Test results published in PMC3239850.
These are yes or no findings as the source states them, for the method shown. Binding calls can cover weak binding; strength is not graded here. Blank lines part the entries; values can stand above or below the binder they belong to.

Tests used:
Test in all cases: two-hybrid; direct interaction assays, ProQuest system (Invitrogen); Brachypodium NF-YC orthologs as Gal4 DBD fusions, Arabidopsis proteins as Gal4 AD fusions; X-Gal assay on nitrocellulose membranes
[1] = molecular target: Bradi1g32200 (Brachypodium NF-YC ortholog) (Brachypodium distachyon)
[2] = molecular target: Bradi1g67980 (Brachypodium NF-YC ortholog) (Brachypodium distachyon)
[3] = molecular target: Bradi3g05270 (Brachypodium NF-YC ortholog) (Brachypodium distachyon)

- binding [1]: binds
- binding [2]: binds
- binding [3]: binds
B1: NUCLEAR FACTOR Y subunit B2 (protein, UniProt Q9FGJ3 1-190)
chain: MGDSDRDSGGGQNGNNQNGQSSLSPREQDRFLPIANVSRIMKKALPANAKISKDAKETMQECVSEFISFVTGEASDKCQKEKRKTINGDDLLWAMTTLGFEDYVEPLKVYLQRFREIEGERTGLGRPQTGGEVGEHQRDAVGDGGGFYGGGGGMQYHQHHQFLHQQNHMYGATGGGSDSGGGAASGRTRT

- binding [1]: binds
- binding [2]: binds
- binding [3]: binds
B2: NUCLEAR FACTOR Y subunit B3 (protein, UniProt O23310 1-161)
chain: MADSDNDSGGHKDGGNASTREQDRFLPIANVSRIMKKALPANAKISKDAKETVQECVSEFISFITGEASDKCQREKRKTINGDDLLWAMTTLGFEDYVEPLKVYLQKYREVEGEKTTTAGRQGDKEGGGGGGGAGSGSGGAPMYGGGMVTTMGHQFSHHFS
